Data reported in patent US8273855.
No constants are given. Whether binding was seen depends on the method and setting. For some assays here: Binding seen in cells or lysates may run through a third protein. Some binding calls cover weakened binding; strength is not graded here. For some assays here: Where a sequence is shown, tags or fusion partners need not be part of it.

Chains of the proteins cited; added tags and fusions are not shown. Residues count along the entry.
UniProt Q07008, residues 19-2531: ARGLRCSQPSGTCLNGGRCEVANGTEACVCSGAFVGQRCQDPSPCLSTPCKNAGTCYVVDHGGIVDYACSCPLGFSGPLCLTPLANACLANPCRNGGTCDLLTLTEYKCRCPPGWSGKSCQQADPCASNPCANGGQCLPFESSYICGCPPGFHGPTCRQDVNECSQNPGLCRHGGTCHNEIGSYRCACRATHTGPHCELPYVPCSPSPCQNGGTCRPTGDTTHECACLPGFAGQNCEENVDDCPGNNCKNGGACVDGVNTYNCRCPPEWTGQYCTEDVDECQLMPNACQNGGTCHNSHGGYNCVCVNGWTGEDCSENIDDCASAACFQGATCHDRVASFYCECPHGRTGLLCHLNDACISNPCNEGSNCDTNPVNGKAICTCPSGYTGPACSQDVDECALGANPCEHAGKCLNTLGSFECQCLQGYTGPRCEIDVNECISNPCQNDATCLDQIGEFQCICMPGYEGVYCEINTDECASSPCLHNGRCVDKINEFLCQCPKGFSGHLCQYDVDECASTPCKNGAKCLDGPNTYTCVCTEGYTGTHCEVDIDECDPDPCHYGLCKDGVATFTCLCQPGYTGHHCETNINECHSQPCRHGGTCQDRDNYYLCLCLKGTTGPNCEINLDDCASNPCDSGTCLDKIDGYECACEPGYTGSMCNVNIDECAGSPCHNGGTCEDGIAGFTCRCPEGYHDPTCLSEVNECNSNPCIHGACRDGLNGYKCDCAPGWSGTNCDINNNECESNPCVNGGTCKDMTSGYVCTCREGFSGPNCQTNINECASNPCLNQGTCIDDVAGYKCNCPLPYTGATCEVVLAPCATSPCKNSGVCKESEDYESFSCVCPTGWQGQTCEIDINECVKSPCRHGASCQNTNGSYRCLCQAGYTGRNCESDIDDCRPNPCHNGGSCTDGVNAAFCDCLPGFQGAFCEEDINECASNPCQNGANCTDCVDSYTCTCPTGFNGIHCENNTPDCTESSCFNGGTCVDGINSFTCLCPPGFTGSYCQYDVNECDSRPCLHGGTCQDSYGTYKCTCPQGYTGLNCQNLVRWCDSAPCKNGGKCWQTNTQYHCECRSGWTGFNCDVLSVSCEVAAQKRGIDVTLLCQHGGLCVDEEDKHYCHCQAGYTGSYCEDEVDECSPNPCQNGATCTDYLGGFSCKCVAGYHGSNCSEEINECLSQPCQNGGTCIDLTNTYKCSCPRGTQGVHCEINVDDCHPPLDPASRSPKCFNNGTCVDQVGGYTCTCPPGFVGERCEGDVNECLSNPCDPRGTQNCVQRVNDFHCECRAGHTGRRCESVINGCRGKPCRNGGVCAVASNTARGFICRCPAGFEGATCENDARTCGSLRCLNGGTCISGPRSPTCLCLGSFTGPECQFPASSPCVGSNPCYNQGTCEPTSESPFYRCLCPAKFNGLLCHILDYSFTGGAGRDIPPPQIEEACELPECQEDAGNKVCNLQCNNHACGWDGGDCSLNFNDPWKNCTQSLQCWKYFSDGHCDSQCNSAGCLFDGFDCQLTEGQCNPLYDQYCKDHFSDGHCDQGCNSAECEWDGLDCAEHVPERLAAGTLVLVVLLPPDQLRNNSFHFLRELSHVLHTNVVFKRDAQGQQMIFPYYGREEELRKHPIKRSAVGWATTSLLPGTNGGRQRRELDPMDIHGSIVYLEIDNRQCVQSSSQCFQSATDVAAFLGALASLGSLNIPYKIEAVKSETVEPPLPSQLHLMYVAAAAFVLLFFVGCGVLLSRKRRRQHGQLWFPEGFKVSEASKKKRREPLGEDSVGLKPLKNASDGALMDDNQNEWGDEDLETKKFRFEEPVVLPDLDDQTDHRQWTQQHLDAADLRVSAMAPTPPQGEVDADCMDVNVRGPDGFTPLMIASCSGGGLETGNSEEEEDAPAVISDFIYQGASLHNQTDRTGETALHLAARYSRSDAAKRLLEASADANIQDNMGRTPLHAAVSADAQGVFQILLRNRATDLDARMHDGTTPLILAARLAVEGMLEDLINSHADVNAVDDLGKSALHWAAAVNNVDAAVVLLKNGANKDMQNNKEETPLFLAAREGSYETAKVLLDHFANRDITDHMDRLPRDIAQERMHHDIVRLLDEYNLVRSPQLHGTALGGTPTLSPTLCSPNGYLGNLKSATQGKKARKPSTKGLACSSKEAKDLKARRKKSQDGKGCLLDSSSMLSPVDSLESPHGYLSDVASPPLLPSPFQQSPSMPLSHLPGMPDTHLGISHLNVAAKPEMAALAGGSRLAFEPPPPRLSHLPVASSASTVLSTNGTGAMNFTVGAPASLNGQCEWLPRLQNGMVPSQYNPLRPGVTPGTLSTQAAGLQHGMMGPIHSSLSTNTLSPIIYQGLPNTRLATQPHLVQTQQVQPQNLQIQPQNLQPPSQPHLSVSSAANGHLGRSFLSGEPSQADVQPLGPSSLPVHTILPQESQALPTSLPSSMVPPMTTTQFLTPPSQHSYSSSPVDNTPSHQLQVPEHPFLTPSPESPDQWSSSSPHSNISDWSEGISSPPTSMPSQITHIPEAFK
UniProt Q9QW30, residues 26-2471: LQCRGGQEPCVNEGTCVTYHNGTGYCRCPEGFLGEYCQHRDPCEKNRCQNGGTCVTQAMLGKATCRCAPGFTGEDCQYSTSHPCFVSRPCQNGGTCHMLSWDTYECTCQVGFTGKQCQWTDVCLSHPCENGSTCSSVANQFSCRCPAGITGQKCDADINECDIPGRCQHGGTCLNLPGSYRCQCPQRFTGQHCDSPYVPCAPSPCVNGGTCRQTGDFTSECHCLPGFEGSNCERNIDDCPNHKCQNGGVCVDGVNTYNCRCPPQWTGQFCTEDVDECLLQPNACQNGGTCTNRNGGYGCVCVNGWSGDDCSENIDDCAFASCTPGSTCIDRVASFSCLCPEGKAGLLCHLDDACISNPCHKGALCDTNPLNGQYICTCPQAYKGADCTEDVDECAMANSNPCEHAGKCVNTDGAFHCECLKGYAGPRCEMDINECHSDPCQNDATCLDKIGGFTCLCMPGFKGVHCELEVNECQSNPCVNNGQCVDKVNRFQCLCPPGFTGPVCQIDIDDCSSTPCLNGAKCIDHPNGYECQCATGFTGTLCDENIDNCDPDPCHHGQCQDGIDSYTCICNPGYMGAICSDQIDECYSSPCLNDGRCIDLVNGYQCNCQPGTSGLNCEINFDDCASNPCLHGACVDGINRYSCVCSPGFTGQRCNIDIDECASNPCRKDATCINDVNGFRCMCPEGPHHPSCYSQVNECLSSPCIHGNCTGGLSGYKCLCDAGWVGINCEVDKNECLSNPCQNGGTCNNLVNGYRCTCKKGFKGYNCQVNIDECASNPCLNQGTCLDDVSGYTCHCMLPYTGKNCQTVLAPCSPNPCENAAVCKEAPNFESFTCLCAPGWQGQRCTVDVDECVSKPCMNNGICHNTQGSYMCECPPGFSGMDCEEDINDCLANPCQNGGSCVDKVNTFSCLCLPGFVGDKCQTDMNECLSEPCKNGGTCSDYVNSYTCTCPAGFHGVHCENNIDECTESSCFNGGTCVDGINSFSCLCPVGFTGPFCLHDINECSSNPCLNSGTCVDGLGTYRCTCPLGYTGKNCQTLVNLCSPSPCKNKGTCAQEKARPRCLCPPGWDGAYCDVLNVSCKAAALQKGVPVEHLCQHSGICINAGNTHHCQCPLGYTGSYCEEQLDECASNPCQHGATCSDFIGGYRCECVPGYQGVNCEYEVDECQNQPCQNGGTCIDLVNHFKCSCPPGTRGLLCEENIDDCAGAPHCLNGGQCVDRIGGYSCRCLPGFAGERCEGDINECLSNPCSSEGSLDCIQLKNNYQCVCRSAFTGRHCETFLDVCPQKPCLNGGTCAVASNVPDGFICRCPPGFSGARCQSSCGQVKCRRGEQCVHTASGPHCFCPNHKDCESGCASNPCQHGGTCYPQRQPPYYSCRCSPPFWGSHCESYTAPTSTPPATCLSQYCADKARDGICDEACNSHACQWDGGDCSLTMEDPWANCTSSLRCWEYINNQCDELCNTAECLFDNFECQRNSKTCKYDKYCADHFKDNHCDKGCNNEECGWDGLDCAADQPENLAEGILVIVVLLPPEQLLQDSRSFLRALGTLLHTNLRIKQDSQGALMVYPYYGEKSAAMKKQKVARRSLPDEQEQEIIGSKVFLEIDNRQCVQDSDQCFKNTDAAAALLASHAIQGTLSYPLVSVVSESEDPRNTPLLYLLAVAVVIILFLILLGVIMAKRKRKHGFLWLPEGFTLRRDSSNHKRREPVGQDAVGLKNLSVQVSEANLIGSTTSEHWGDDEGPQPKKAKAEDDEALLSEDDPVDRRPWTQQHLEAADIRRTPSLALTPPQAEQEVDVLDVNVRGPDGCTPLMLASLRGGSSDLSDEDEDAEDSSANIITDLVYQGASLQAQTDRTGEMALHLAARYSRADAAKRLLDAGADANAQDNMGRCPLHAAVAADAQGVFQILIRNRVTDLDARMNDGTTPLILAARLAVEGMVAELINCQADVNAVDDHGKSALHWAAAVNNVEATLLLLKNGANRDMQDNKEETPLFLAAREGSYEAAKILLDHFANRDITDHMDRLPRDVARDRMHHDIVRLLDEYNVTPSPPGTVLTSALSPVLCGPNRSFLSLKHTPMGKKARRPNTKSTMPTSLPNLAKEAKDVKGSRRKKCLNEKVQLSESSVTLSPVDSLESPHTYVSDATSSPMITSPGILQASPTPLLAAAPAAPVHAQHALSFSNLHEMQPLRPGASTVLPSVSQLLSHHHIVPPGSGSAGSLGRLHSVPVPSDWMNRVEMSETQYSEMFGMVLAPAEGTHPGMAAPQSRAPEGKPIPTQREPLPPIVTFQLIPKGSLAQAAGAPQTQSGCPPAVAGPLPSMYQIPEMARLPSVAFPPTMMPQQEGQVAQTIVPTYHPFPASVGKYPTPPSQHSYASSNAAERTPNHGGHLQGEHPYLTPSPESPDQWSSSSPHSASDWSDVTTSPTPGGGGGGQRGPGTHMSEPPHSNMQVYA

Key:
[1] = molecular target: Notch1 (native, rat brain) (rat) (UniProt Q07008); assay: co-immunoprecipitation from rat brain lysate (legend of FIG. 15, second printing)
[2] = molecular target: Notch1 (native, rat brain) (rat) (UniProt Q07008); assay: co-immunoprecipitation from rat brain lysates (legend of FIG. 10)
[3] = molecular target: Notch1 (native, rat brain) (rat) (UniProt Q07008); assay: co-immunoprecipitation from rat brain membrane samples with Notch1 antibody, and reciprocal assay
[4] = molecular target: Notch1 (native, rat brain) (rat) (UniProt Q07008); assay: co-immunoprecipitation from rat brain lysate (legend of FIG. 15)
[5] = molecular target: Notch1 (native, rat brain) (rat) (UniProt Q07008); assay: co-immunoprecipitation from rat brain lysates (legend of FIG. 10, second printing)
[6] = molecular target: Notch1 (native, rat brain) (rat) (UniProt Q07008); assay: co-immunoprecipitation from rat brain membrane preparations in 2% Triton X-100
[7] = molecular target: Notch1 (native, rat brain) (rat) (UniProt Q07008); assay: co-immunoprecipitation from P0 rat brain membrane extracts
[8] = molecular target: Notch1 (native, rat brain) (rat) (UniProt Q07008); assay: co-immunoprecipitation from rat brain lysates (legend of FIG. 23, second printing)
[9] = molecular target: Notch1 (native, rat brain) (rat) (UniProt Q07008); assay: co-immunoprecipitation from rat brain lysates (legend of FIG. 23)
[10] = molecular target: Notch1 (native, rat brain) (rat) (UniProt Q07008); assay: co-immunoprecipitation from adult rat brain membrane extracts
[11] = molecular target: T1, F3/contactin (native, rat brain) (rat) (UniProt Q63198); assay: co-immunoprecipitation from adult rat brain membrane extracts, Western blot
T1 sequence (looked up): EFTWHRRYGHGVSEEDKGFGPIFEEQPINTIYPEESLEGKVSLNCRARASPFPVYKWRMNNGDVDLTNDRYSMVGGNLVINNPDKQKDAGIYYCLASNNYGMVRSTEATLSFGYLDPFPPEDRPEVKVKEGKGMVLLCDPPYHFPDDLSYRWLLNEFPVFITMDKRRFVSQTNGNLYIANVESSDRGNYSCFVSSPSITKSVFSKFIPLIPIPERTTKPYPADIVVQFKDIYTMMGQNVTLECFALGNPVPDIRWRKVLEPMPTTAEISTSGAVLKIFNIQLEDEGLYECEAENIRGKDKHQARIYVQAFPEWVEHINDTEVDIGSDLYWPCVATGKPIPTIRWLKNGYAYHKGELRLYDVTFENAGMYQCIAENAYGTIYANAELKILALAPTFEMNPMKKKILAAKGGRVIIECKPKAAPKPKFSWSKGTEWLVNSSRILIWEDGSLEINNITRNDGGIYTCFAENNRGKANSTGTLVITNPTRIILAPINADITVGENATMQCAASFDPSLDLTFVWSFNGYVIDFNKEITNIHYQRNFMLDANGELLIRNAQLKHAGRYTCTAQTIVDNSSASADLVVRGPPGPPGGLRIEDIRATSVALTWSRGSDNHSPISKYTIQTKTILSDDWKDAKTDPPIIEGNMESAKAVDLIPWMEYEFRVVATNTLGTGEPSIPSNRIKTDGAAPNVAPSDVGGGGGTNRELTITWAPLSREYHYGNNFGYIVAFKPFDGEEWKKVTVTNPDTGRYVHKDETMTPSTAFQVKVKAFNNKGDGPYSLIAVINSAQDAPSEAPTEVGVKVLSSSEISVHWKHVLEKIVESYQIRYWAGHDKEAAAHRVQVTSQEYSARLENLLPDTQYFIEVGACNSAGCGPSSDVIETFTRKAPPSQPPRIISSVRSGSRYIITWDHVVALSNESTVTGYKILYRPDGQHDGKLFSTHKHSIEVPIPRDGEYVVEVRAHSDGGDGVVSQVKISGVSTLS

[12] = molecular target: Notch2 on OLN-93 cells (rat) (UniProt Q9QW30); assay: OLN-93 cell adhesion to NB-3-His substrate with antibody blockade
[13] = molecular target: Notch1 on OLN-93 cells (rat) (UniProt Q07008); assay: as above
[14] = molecular target: murine Notch1 on transfected HeLa cells (mouse) (UniProt Q01705); assay: adhesion of mouse Notch1-transfected HeLa cells to NB-3-His substrate

Measured: binding

B1: F3/contactin (native, rat brain) (ligand, UniProt Q63198 21-1001, looked up)
chain: T1 sequence (looked up)
binds: [1] | [2] | [3] | [4] | [5] | [6]

B2: NB-3 (native, rat brain) (ligand, UniProt P97528 20-999, looked up)
chain: ESRFTRPIFIQEPQDVIFPLDLSRSEIILSCTASGYPSPHYRWKQNGTDIDFSMTYHYRLDGGSLAISSPRTDQDIGIYQCLATNPVGTILSRKAKLQFAYIEDFETKSRSTVSVREGQGVVLLCGPPPHFGELSYDWTFNDNPLYVQEDKRRFVSQNTGNLYIAKVEPSDVGNYTCFVTNKEAHRSVQGPPTPLVQRTDGVMGEYEPKIEVRFPETIQAAKDSSVKLECFALGNPVPDISWRRLDGSPMPGKVKYSNSQATLEIPKFQQEDEGFYECVAGNLRGRNLAKGQLIFYAPPEWEQKIQNTYLSIYDSLFWECKASGNPNPSYTWLKNGERLNTEERIQTENGTLIITMLNVSDSGIYQCAAENKYQTIYANAELRVLASAPDFSKNPIKKISVVQVGGDISIECKPNAFPKASISWKRGTENLKQSKRVFFLEDGSLKICNVTRSDAGSYTCVATNQFGNGKSSGSLIVKERTVITVPPSKMDVTVGESIVLPCQVSHDPTMEVLFVWYFNGDVIDLKKGVAHFERIGGESVGDLMIRNIQLGHSGKYLCTVQTTLERLSAVADIIVRGPPGPPEDVKVEHISSTTSQLSWRPGPDNNSPIQIFTIQTRTPFSVGWQAVATVPEILNGQTYNATVIGLSPWVEYEFRVVAGNNIGIGEPSKPSELLRTKASIPNVAPVNINGGGGSRSELVITWEPIPEELQNGEGFGYIIMFRPVGSTTWMKEKVALVESSKFIYRNESIMPLSPFEVKVGVYNNEGEGSLSTVSIVYSGEDEPRLAPRGTSVQSFSASDMEVSWNAIAWNRNTGRVLGYEVLYWTDNSKESMIGKIRVSGNVTTKNITGLRANTIYFASVRAYNTAGTGPSSPPVNVTTKKSPPSQPPANIAWKLSNSKLCLNWEHVKTMENESEVLGYKILYRQNRQSKTHVLETNNTSAELLVPFEEDYLIEIRTVSDGGDGSSSEEIRIPKMSSLSS
binds: [7] | [8] | [2] | [9] | [10] | [5] | [6]

B3: Caspr (native, adult rat brain membrane extracts) (receptor, UniProt P97846 21-1381, looked up)
chain: WGYYGCNEELVGPLYARSLGASSYYGLFTTARFARLHGISGWSPRIGDPNPWLQIDLMKKHRIRAVATQGAFNSWDWVTRYMLLYGDRVDSWTPFYQQGHNATFFGNVNDSAVVRHDLHYHFTARYIRIVPLAWNPRGKIGLRLGIYGCPYTSNILYFDGDDAISYRFQRGASQSLWDVFAFSFKTEEKDGLLLHTEGSQGDYVTLELQGAHLLLHMSLGSSPIQPRPGHTTVSAGGVLNDLSWHYVRVDRYGREANLTLDGYVHRFVLNGDFERLNLENEIFIGGLVGAARKNLAYRHNFRGCIENVIYNRINIAEMAVQRHSRITFEGNVAFRCLDPVPHPINFGGPHNFVQVPGFPRRGRLAVSFRFRTWDLTGLLLFSRLGDGLGHVELMLSEGQVNVSIAQTGRKKLQFAAGYRLNDGFWHEVNFVAQENHAVISIDDVEGAEVRVSYPLLIRTGTSYFFGGCPKPASRWGCHSNQTAFHGCMELLKVDGQLVNLTLVEFRKLGYFAEVLFDTCGITDRCSPNMCEHDGRCYQSWDDFICYCELTGYKGVTCHEPLYKESCEAYRLSGKYSGNYTIDPDGSGPLKPFVVYCDIRENRAWTVVRHDRLWTTRVTGSSMDRPFLGAIQYWNASWEEVSALANASQHCEQWIEFSCYNSRLLNTAGGYPYSFWIGRNEEQHFYWGGSQPGIQRCACGLDQSCIDPALHCNCDADQPQWRTDKGLLTFVDHLPVTQVVIGDTNRSSSEAQFFLRPLRCYGDRNSWNTISFRTGAALRFPPIRANHSLDVSFYFRTSAPSGVFLENMGGPFCQWRRPYVRVELNTSRDVVFAFDIGNGDENLTVHSDDFEFNDDEWHLVRAEINVKQARLRVDHRPWVLRPMPLQTYIWLEYDQPLYVGSAELKRRPFVGCLRAMRLNGVTLNLEGRANASEGTFPNCTGHCTHPRFPCFHGGRCVERYSYYTCDCDLTAFDGPYCNHDIGGFFETGTWMRYNLQSALRSAAQEFSHMLSRPVPGYEPGYIPGYDTPGYVPGYHGPGYRLPDYPRPGRPVPGYRGPVYNVTGEEVSFSFSTSSAPAVLLYVSSFVRDYMAVLIKEDGTLQLRYQLGTSPYVYQLTTRPVTDGQPHSVNITRVYRNLFIQVDYFPLTEQKFSLLVDSQLDSPKALYLGRVMETGVIDPEIQRYNTPGFSGCLSGVRFNNVAPLKTHFRTPRPMTAELAEAMRVQGELSESNCGAMPRLVSEVPPELDPWYLPPDFPYYHDDGWIAILLGFLVAFLLLGLVGMLVLFYLQNHRYKGSYHTNEPKATHDSHPGGKAPLPPSGPAQAPAPTPAPTQVPTPAPAPASGPGPRDQNLPQILEESRSE
binds: [11]

B4: NB-3-His (ligand, rat)
chain: ESRFTRPIFIQEPQDVIFPLDLSRSEIILSCTASGYPSPHYRWKQNGTDIDFSMTYHYRLDGGSLAISSPRTDQDIGIYQCLATNPVGTILSRKAKLQFAYIEDFETKSRSTVSVREGQGVVLLCGPPPHFGELSYDWTFNDNPLYVQEDKRRFVSQNTGNLYIAKVEPSDVGNYTCFVTNKEAHRSVQGPPTPLVQRTDGVMGEYEPKIEVRFPETIQAAKDSSVKLECFALGNPVPDISWRRLDGSPMPGKVKYSNSQATLEIPKFQQEDEGFYECVAGNLRGRNLAKGQLIFYAPPEWEQKIQNTYLSIYDSLFWECKASGNPNPSYTWLKNGERLNTEERIQTENGTLIITMLNVSDSGIYQCAAENKYQTIYANAELRVLASAPDFSKNPIKKISVVQVGGDISIECKPNAFPKASISWKRGTENLKQSKRVFFLEDGSLKICNVTRSDAGSYTCVATNQFGNGKSSGSLIVKERTVITVPPSKMDVTVGESIVLPCQVSHDPTMEVLFVWYFNGDVIDLKKGVAHFERIGGESVGDLMIRNIQLGHSGKYLCTVQTTLERLSAVADIIVRGPPGPPEDVKVEHISSTTSQLSWRPGPDNNSPIQIFTIQTRTPFSVGWQAVATVPEILNGQTYNATVIGLSPWVEYEFRVVAGNNIGIGEPSKPSELLRTKASIPNVAPVNINGGGGSRSELVITWEPIPEELQNGEGFGYIIMFRPVGSTTWMKEKVALVESSKFIYRNESIMPLSPFEVKVGVYNNEGEGSLSTVSIVYSGEDEPRLAPRGTSVQSFSASDMEVSWNAIAWNRNTGRVLGYEVLYWTDNSKESMIGKIRVSGNVTTKNITGLRANTIYFASVRAYNTAGTGPSSPPVNVTTKKSPPSQPPANIAWKLSNSKLCLNWEHVKTMENESEVLGYKILYRQNRQSKTHVLETNNTSAELLVPFEEDYLIEIRTVSDGGDGSSSEEIRIPKMSSLSSHHHHHH
binds: [12] | [13] | [14]
